Reference: PubChem BioAssay AID743456 (Peter MacCallum Cancer Centre, 2014)
Screen: 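miRNA mimics altering how resistant colon cancer cells respond to vorinostat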 (primary screen). Cell system: human HCT116-VR colon cancer cells, a vorinostat-resistant HCT116 line. Reagents: miRNA mimic. Duration: about 3 days from transfection to readout; drug present for the last 24 h. Treatment: vorinostat at 2.5 µM final for 24 h. Read-out: 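Cell viability from CellTiter-Fluor signal and caspase activity from luminescence after 24 h vorinostat at 2.5 µM, given as robust z-scores and as ratios to mock-transfected wells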. Reading the numbers: viability robust z-score and viability vs mock transfection: higher = more viable cells; caspase robust z-score: higher = more caspase activity, more apoptosis. Rule for the call: 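Active when viability drops or caspase activity climbs beyond robust z thresholds, with wells of poor cell health excluded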.
In all, the deposit lists 878 reagents; shown is an unselected part. 27 of them (3.1%) were called active. 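27 mimics are marked active, unlike an earlier stated count of 24; the viability threshold is described inconsistently.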 Entries without a mark were called inactive. Reagent sequences are not shown. Not stated in the record: the amount of reagent.

| miRNA | viability robust z-score | caspase robust z-score | viability hit class | caspase hit class | viability vs mock transfection |
| --- | --- | --- | --- | --- | --- |
| hsa-miR-516-3p | 0.52 | -0.45 | no change | no change | 0.88 |
| hsa-miR-548b-3p | 0.66 | -0.8 | no change | no change | 0.9 |
| hsa-miR-365 | -0.76 | 0.8 | no change | no change | 0.66 |
| hsa-miR-377 | 0.06 | -0.27 | no change | no change | 0.76 |
| hsa-miR-650 | -0.45 | 0.62 | no change | no change | 0.66 |
| hsa-miR-1974 | -0.57 | 2.75 | no change | no change | 0.7 |
| hsa-miR-302b | 0.24 | 1.21 | no change | no change | 0.84 |
| hsa-miR-31* | -0.71 | 0.16 | no change | no change | 0.68 |
| hsa-miR-518f* | 1.05 | 1.09 | no change | no change | 0.97 |
| hsa-miR-508-3p | -1.18 | -0.8 | no change | no change | 0.54 |
| hsa-miR-455-3p | 1.29 | -0.48 | no change | no change | 0.99 |
| hsa-let-7a-2* | -0.6 | 2.8 | no change | no change | 0.64 |
| hsa-miR-595 | 1.02 | 0.31 | no change | no change | 0.96 |
| hsa-miR-1470 | 1.83 | -0.48 | no change | no change | 1.1 |
| hsa-miR-1264 | 0.93 | 0.74 | no change | no change | 0.94 |
| hsa-miR-875-5p | -0.41 | -0.83 | no change | no change | 0.72 |
| hsa-miR-580 | 0.34 | -0.94 | no change | no change | 0.81 |
| hsa-miR-1321 | -0.87 | 3.29 | no change | no change | 0.66 |
| hsa-miR-98 | 0.6 | -0.21 | no change | no change | 0.89 |
| hsa-miR-127-5p | -1.64 | 0.98 | no change | no change | 0.54 |
| hsa-miR-1297 | 0.55 | -0.92 | no change | no change | 0.88 |
| hsa-miR-148a* | 0.06 | 1.58 | no change | no change | 0.8 |
| hsa-miR-29a | -0.4 | -0.86 | no change | no change | 0.68 |
| hsa-miR-1291 | 0.94 | 1.16 | no change | no change | 0.92 |
| hsa-miR-660 | 0.81 | -0.84 | no change | no change | 0.9 |
| hsa-miR-141* | -1.38 | -0.76 | no change | no change | 0.5 |
| hsa-miR-363 | -0.23 | -0.98 | no change | no change | 0.75 |
| hsa-miR-199a-3p | -0.92 | 0.6 | no change | no change | 0.58 |
| hsa-miR-1292 | 1.14 | 0.02 | no change | no change | 0.96 |
| hsa-miR-7-1* | 1.18 | -0.59 | no change | no change | 0.98 |
| hsa-miR-27b* | 0.3 | 0.57 | no change | no change | 0.8 |
| hsa-miR-1256 | -0.22 | 2.37 | no change | no change | 0.76 |
| hsa-miR-103 | -0.03 | -0.16 | no change | no change | 0.74 |
| hsa-miR-888 | 0.52 | -0.76 | no change | no change | 0.84 |

Ordered by “viability vs mock transfection” (descending): some entries from above
| miRNA | viability robust z-score | caspase robust z-score | viability hit class | caspase hit class | viability vs mock transfection |
| --- | --- | --- | --- | --- | --- |
| hsa-miR-660 | 0.81 | -0.84 | no change | no change | 0.9 |
| hsa-miR-363 | -0.23 | -0.98 | no change | no change | 0.75 |
| hsa-miR-141* | -1.38 | -0.76 | no change | no change | 0.5 |
